# Library screen at single concentrations

Protein sequences, listed by entry. Tags and fused reporters are not part of them.
UniProt P9WPC5, whole entry: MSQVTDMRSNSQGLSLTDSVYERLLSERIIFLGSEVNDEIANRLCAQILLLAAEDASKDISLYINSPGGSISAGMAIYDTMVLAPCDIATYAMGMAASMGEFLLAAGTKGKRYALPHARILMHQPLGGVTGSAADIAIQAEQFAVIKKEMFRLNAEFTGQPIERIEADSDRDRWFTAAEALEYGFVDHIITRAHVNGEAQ
UniProt P9WPC3, whole entry partner: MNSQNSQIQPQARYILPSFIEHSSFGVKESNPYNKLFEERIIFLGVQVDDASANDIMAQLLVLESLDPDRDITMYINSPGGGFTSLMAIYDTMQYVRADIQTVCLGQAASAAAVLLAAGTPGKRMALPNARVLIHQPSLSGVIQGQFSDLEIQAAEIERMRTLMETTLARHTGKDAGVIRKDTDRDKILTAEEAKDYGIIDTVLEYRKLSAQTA
UniProt P9WFT3, whole entry: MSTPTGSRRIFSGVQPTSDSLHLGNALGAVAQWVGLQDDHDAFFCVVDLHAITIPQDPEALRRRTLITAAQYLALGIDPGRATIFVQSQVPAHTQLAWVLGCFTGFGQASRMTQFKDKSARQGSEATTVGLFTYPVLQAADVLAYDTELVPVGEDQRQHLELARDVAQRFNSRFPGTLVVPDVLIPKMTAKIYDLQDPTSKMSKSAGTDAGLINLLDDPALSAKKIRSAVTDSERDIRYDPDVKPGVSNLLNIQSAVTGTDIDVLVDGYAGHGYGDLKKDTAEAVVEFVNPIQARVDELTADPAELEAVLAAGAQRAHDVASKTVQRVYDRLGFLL
UniProt P9WNZ1, whole entry: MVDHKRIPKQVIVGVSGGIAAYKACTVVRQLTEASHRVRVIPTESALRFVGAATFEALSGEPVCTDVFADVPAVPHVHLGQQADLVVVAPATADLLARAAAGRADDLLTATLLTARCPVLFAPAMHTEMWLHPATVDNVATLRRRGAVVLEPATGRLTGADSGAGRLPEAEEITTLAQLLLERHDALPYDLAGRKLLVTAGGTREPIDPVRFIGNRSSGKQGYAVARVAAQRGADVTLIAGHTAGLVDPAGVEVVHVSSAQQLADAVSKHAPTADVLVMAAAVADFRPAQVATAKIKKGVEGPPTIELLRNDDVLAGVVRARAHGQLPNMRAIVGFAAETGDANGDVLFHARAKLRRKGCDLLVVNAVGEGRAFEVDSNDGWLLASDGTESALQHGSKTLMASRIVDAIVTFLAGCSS

The values are deposited in ChEMBL (CHEMBL3988442, “University of Dundee, Small-Polar-MMV Screening Library” (2021)).

ClpP1P2: 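Protease assay of ClpP1P2, read by the AMC dye that it sets free. Target: ClpP1P2, Mycobacterium tuberculosis (UniProt P9WPC5 and UniProt P9WPC3). Tested at 50 µM. Higher reads as stronger inhibition, judged from the few compounds that gave an IC50. Most other retested compounds had strongly negative values. About 69,000 compounds were tested under these conditions; 0.015% (about 10) showed 50% or more at least once.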
Toxoplasma: 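Assay of Toxoplasma gondii numbers, read through their beta-galactosidase reporter with a colour substrate. Tested at 10 µM. The record gives no direction; the compounds picked for IC50 retests had high values, so higher reads as fewer parasites. About 67,000 compounds were tested under these conditions; 0.38% (about 260) showed 50% or more at least once.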
MtTrpRS: 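Tryptophan-tRNA ligase, Mycobacterium tuberculosis (UniProt P9WFT3). Enzyme assay of tryptophanyl-tRNA synthetase; the read-out is not stated. Tested at 10 µM. Direction is not recorded; retested compounds ran higher, which suggests that high means inhibition. Of about 65,000 compounds tested this way, about 64 (0.098%) reached 50% or more in at least one test.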
CoaBC: 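Coenzyme A biosynthesis protein CoaBC, Mycobacterium tuberculosis (UniProt P9WNZ1). Enzyme assay of CoaBC with a phosphate dye (Biomol Green) read at 650 nm. Tested at 30 µM. Direction is inferred from only a few compounds that gave an IC50; most scored high, so higher reads as stronger inhibition. Most strong results did not repeat in a second test. Of about 67,000 compounds tested this way, about 40 (0.06%) reached 50% or more in at least one test.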

Results are given as percent effect.
The record does not define 0% and 100%; most values in the screen are far below 50% and negative numbers occur (in some assays of this library far below -100).
Compounds were drawn at random from those tested, without regard to their results.
A dash means the value is not listed here; it may have been measured.

With O=C(C1CC1)N1CCCN(c2ncnc3c2CCNCC3)CC1 the screen gave ClpP1P2: -2.038%; Toxoplasma: 5.936%; MtTrpRS: -8.256%. Result for CC(=O)N(Cc1noc(C2CC2)n1)C1CCN(CC2CCOCC2)C1 (stereo unspecified) was ClpP1P2: -19.36%; Toxoplasma: -17.62%; MtTrpRS: 26.63%; CoaBC: 5.492%. [H][C@]12CCN(C(=O)Cc3ccc(OC)cc3)CC[C@@]1([H])S(=O)(=O)N(C)C2 read Toxoplasma: -0.5311%. With COc1ccc(CN2CCOCC3(CCN(C4CCOCC4)C3)C2)cc1.O=C(O)C(F)(F)F.O=C(O)C(F)(F)F (stereo unspecified) the screen gave Toxoplasma: 5.886%. Cc1nc(Cn2c3c(ccc2=O)CC(N)CC3)cs1 (stereo unspecified) gave ClpP1P2: 11.37%; Toxoplasma: -8.545%; CoaBC: 2.475%. With Cc1ccc(C(NC(=O)[C@H]2CC[C@@H](O)CC2)c2cccnc2)cc1C (stereo partly specified) the screen gave ClpP1P2: -9.704%; Toxoplasma: 0.2203%; MtTrpRS: 5.151%; CoaBC: 3.125%. c1nc(CN2CCCC(Cc3ccc(NC4CCCC4)nn3)C2)c[nH]1 (stereo unspecified) read ClpP1P2: -21.67%; MtTrpRS: -0.2038%; CoaBC: 7.363%. CC(C)N1CC(c2ncc(-c3ccc4c(c3)OCCO4)[nH]2)CC1=O (stereo unspecified) read ClpP1P2: -1.695%; Toxoplasma: 11.73%; MtTrpRS: 0.07764%; CoaBC: 14.29%.

Cc1nnc(SCC(=O)N2CCc3[nH]nc(C4CCC4)c3C2)o1 gave ClpP1P2: -6.653%; Toxoplasma: 37.24%; MtTrpRS: 4.62%; CoaBC: 8.557%. Result for CC(=O)N1CCC2(CC1)CN(C(=O)c1cccc3[nH]ccc13)C2 was ClpP1P2: 10.2%; Toxoplasma: 9.167%; MtTrpRS: 4.364%; CoaBC: 3.865%. For COCC1c2c(cnn2C)CCN1Cc1ccoc1 (stereo unspecified) the result was ClpP1P2: 0.03769%; Toxoplasma: -2.072%; MtTrpRS: 0.1876%; CoaBC: 3.52%. With CC1COCCN1Cc1nc(C(C)(C)C)no1 (stereo unspecified) the screen gave ClpP1P2: -5.432%; Toxoplasma: 3.831%; MtTrpRS: -0.000006%; CoaBC: 1.699%. O=C1CC(c2ccncc2)C2(CCN(CCc3ccccc3)CC2)N1 (stereo unspecified) gave ClpP1P2: 3.35%; MtTrpRS: -1.221%; CoaBC: -7.983%. Cc1cccc(C(=O)N2CCn3cc(CN4CCCCC4)nc3C2)n1 read ClpP1P2: 0.8671%; Toxoplasma: -28.84%; MtTrpRS: 0.1564%; CoaBC: 1.75%. Result for O=C(c1ccccc1-n1cnnn1)N1CCC2(CC1)OCCO2 was ClpP1P2: -9.554%; Toxoplasma: -16.28%; MtTrpRS: 1.22%; CoaBC: -1.139%. CCn1nc(NC(=O)Cn2ccc(C(C)=O)n2)c2ccccc21 read ClpP1P2: 37.13%; Toxoplasma: 17.48%; MtTrpRS: -0.571%; CoaBC: 10.74%.

With Cc1cc(C)n(CC2CN(CC(=O)Nc3ccncc3)CCO2)n1 (stereo unspecified) the screen gave ClpP1P2: 3.806%; Toxoplasma: -3.803%; MtTrpRS: -1.266%; CoaBC: 3.484%. With [H][C@@]12C[C@H](C(=O)NC3CCC3)C[C@@]1([H])OCCN2 the screen gave Toxoplasma: -6.423%. With CN1CCC(CNC(=O)Cc2ccc(N(C)C)cc2)CC1 the screen gave ClpP1P2: -3.532%; Toxoplasma: 1.081%; MtTrpRS: 2.562%; CoaBC: -0.2198%. COc1ccccc1CC(=O)N1CCCC(c2nccn2CC(N)=O)C1 (stereo unspecified) gave ClpP1P2: -0.3553%; Toxoplasma: 6.89%; MtTrpRS: -0.2241%; CoaBC: -2.211%. For O=C(CCNS(=O)(=O)c1ccccc1F)NCc1ccoc1 the result was ClpP1P2: -11.37%; Toxoplasma: -0.2326%; MtTrpRS: 0.2172%; CoaBC: -5.785%. CCn1nc(C(C)C)cc1C(=O)NCC1CCCN(c2ccccn2)C1 (stereo unspecified) read ClpP1P2: -10.98%; Toxoplasma: 12.65%; MtTrpRS: 2.12%; CoaBC: -0.9709%. COc1cc(CNC(C)c2ccc(F)c(F)c2)cc2c1OCCO2.O=C(O)C(=O)O (stereo unspecified) read Toxoplasma: 9.987%. COc1ccc(-c2noc(C3CCS(=O)(=O)C3)n2)cc1OC (stereo unspecified) gave ClpP1P2: 6.91%; Toxoplasma: -2.065%; MtTrpRS: 0.5623%; CoaBC: 7.131%.

O=C(NC[C@H]1OC[C@@H](NCc2ccccc2)[C@@H]1O)Nc1ccc(F)cc1 gave ClpP1P2: -9.782%; Toxoplasma: -2.657%; MtTrpRS: 5.69%; CoaBC: 5.96%. c1ccc(CO[C@@H]2C[C@H]3CN(c4ncccn4)CCN3C2)cc1 gave ClpP1P2: -14.33%; MtTrpRS: 1.187%. For CCc1nnc2n1CCN(C(=O)c1ccc(-c3ccco3)nc1C)C2 the result was ClpP1P2: -4.014%; MtTrpRS: 2.124%; CoaBC: 10.54%. For Cc1cc(C[C@@H]2COC[C@H]2NCc2ccc(C)c(C)c2)on1 the result was ClpP1P2: -4.602%; CoaBC: -3.098%.

Repeated from the top, 3 entries:

| Compound | ClpP1P2 | Toxoplasma | MtTrpRS | CoaBC |
|---|---|---|---|---|
| `O=C(C1CC1)N1CCCN(c2ncnc3c2CCNCC3)CC1` | -2.038% | 5.936% | -8.256% | - |
| `CC(=O)N(Cc1noc(C2CC2)n1)C1CCN(CC2CCOCC2)C1` (stereo unspecified) | -19.36% | -17.62% | 26.63% | 5.492% |
| `[H][C@]12CCN(C(=O)Cc3ccc(OC)cc3)CC[C@@]1([H])S(=O)(=O)N(C)C2` | - | -0.5311% | - | - |